Results: paper PMC5645147, “Binding of a C-type lectin’s coiled-coil domain to the Domeless receptor directly activates the JAK/STAT pathway in the shrimp immune response to bacterial infection”

Chains of the proteins cited; added tags and fusions are not shown.
UniProt D0VYJ1, entry or part of it: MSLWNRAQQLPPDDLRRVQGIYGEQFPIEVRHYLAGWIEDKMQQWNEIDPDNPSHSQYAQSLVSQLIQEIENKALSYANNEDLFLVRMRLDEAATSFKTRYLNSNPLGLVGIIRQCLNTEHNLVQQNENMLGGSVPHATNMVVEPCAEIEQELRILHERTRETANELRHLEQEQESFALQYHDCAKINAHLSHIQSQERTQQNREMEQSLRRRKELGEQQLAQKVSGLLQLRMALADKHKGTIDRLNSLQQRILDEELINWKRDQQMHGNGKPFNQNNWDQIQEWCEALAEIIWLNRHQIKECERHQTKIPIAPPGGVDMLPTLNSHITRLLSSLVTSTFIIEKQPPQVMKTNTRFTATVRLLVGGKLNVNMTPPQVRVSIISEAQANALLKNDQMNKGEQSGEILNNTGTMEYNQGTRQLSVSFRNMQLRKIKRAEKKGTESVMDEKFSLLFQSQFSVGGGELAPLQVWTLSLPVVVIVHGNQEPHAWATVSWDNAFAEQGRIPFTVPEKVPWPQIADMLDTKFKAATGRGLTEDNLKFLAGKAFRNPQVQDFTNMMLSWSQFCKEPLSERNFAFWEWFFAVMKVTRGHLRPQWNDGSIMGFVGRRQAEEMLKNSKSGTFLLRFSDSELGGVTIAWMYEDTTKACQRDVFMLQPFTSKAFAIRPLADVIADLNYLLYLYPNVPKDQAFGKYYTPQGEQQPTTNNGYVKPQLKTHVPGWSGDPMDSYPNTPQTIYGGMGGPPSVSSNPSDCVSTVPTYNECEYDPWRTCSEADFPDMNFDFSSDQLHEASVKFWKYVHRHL

What was measured:
[1] = target: native STAT, untreated shrimp (Marsupenaeus japonicus (kuruma shrimp)) (UniProt D0VYJ1); experiment: EMSA; settings: STAT from untreated shrimp, compared with LPS-injected; 2 ug protein, 20 fmol Dig-probe, Beyotime EMSA binding buffer (from 5x; composition and pH not stated), 20 min with probe, room temperature (stated for competition); native protein
[2] = target: GST-STAT (Marsupenaeus japonicus (kuruma shrimp)) (UniProt D0VYJ1); experiment: EMSA; settings: 2 ug protein, 20 fmol Dig-probe, Beyotime EMSA binding buffer (from 5x; composition and pH not stated), 20 min with probe, room temperature (stated for competition); recombinant protein; protein details: GST

## GCGTAAGGTTTTCTTGGAATA (double strand) [CruI-1 promoter STAT probe]
[1]
  binding result: binds more weakly
[2]
  binding result: binds

The exact form of at least one protein or probe is not confirmed. For some assays here: The comparison behind a weaker result is the experiment's own reference, which may not be listed here. For some assays here: At least one verdict rests on a figure or table, not on a statement of the authors.
